Earlier results, collected in US12378302B2, “Fusion molecules and uses thereof” (Foundation Medicine, Inc., priority 2012, dated 2025).
At least one structure is not confirmed: it was looked up by name or label, or the drawing left a doubt.

System: NSCLC patients
Conditions: Phase 2 trial

COC(=O)c1ccc2c(c1)NC(=O)/C2=C(\Nc1ccc(N(C)C(=O)CN2CCN(C)CC2)cc1)c1ccccc1 [BIBF 1120]
partial response: one patient had a partial response
stable disease: about half of all patients achieved stable disease
